Results are given in words; binding and its absence hold for the method and conditions named. In cells and extracts the contact can be indirect.
Biological target: wild-type p53 (p53^wt), endogenous (human (endogenous in A549)) (UniProt P04637)
Assay: proximity ligation; PLA in fixed, permeabilised cells (MDA-MB-231 for p53^mt; p53^wt cells) treated with vehicle or 30 μM cisplatin for 24 h; nuclear foci counted

B1: PITP cytoplasmic 1 (PITPNC1), endogenous (protein, UniProt Q9UKF7 1-332)
chain: MLLKEYRICMPLTVDEYKIGQLYMISKHSHEQSDRGEGVEVVQNEPFEDPHHGNGQFTEKRVYLNSKLPSWARAVVPKIFYVTEKAWNYYPYTITEYTCSFLPKFSIHIETKYEDNKGSNDTIFDNEAKDVEREVCFIDIACDEIPERYYKESEDPKHFKSEKTGRGQLREGWRDSHQPIMCSYKLVTVKFEVWGLQTRVEQFVHKVVRDILLIGHRQAFAWVDEWYDMTMDEVREFERATQEATNKKIGIFPPAISISSIPLLPSSVRSAPSSAPSTPLSTDAPEFLSVPKDRPRKKSAPETLTLPDPEKKATLNLPGMHSSDKPCRPKSE
binding: no binding

B2: PITP membrane-associated 1 (PITPNM1), endogenous (protein, UniProt O00562 1-1244)
chain: MLIKEYHILLPMSLDEYQVAQLYMIQKKSREESSGEGSGVEILANRPYTDGPGGSGQYTHKVYHVGSHIPGWFRALLPKAALQVEEESWNAYPYTRTRYTCPFVEKFSIEIETYYLPDGGQQPNVFNLSGAERRQRILDTIDIVRDAVAPGEYKAEEDPRLYHSVKTGRGPLSDDWARTAAQTGPLMCAYKLCKVEFRYWGMQAKIEQFIHDVGLRRVMLRAHRQAWCWQDEWTELSMADIRALEEETARMLAQRMAKCNTGSEGSEAQPPGKPSTEARSAASNTGTPDGPEAPPGPDASPDASFGKQWSSSSRSSYSSQHGGAVSPQSLSEWRMQNIARDSENSSEEEFFDAHEGFSDSEEVFPKEMTKWNSNDFIDAFASPVEAEGTPEPGAEAAKGIEDGAQAPRDSEGLDGAGELGAEACAVHALFLILHSGNILDSGPGDANSKQADVQTLSSAFEAVTRIHFPEALGHVALRLVPCPPICAAAYALVSNLSPYSHDGDSLSRSQDHIPLAALPLLATSSSRYQGAVATVIARTNQAYSAFLRSPEGAGFCGQVALIGDGVGGILGFDALCHSANAGTGSRGSSRRGSMNNELLSPEFGPVRDPLADGVEGLGRGSPEPSALPPQRIPSDMASPEPEGSQNSLQAAPATTSSWEPRRASTAFCPPAASSEAPDGPSSTARLDFKVSGFFLFGSPLGLVLALRKTVMPALEAAQMRPACEQIYNLFHAADPCASRLEPLLAPKFQAIAPLTVPRYQKFPLGDGSSLLLADTLQTHSSLFLEELEMLVPSTPTSTSGAFWKGSELATDPPAQPAAPSTTSEVVKILERWWGTKRIDYSLYCPEALTAFPTVTLPHLFHASYWESADVVAFILRQVIEKERPQLAECEEPSIYSPAFPREKWQRKRTQVKIRNVTSNHRASDTVVCEGRPQVLSGRFMYGPLDVVTLTGEKVDVYIMTQPLSGKWIHFGTEVTNSSGRLTFPVPPERALGIGVYPVRMVVRGDHTYAECCLTVVARGTEAVVFSIDGSFTASVSIMGSDPKVRAGAVDVVRHWQDSGYLIVYVTGRPDMQKHRVVAWLSQHNFPHGVVSFCDGLTHDPLRQKAMFLQSLVQEVELNIVAGYGSPKDVAVYAALGLSPSQTYIVGRAVRKLQAQCQFLSDGYVAHLGQLEAGSHSHASSGPPRAALGKSSYGVAAPVDFLRKQSQLLRSRGPSQAEREGPGTPPTTLARGKARSISLKLDSEE
binding: no binding

B3: PITP membrane-associated 2 (PITPNM2), endogenous (protein, UniProt Q9BZ72 1-1349)
chain: MIIKEYRIPLPMTVEEYRIAQLYMIQKKSRNETYGEGSGVEILENRPYTDGPGGSGQYTHKVYHVGMHIPSWFRSILPKAALRVVEESWNAYPYTRTRFTCPFVEKFSIDIETFYKTDAGENPDVFNLSPVEKNQLTIDFIDIVKDPVPHNEYKTEEDPKLFQSTKTQRGPLSENWIEEYKKQVFPIMCAYKLCKVEFRYWGMQSKIERFIHDTGLRRVMVRAHRQAWCWQDEWYGLSMENIRELEKEAQLMLSRKMAQFNEDGEEATELVKHEAVSDQTSGEPPEPSSSNGEPLVGRGLKKQWSTSSKSSRSSKRGASPSRHSISEWRMQSIARDSDESSDDEFFDAHEDLSDTEEMFPKDITKWSSNDLMDKIESPEPEDTQDGLYRQGAPEFRVASSVEQLNIIEDEVSQPLAAPPSKIHVLLLVLHGGTILDTGAGDPSSKKGDANTIANVFDTVMRVHYPSALGRLAIRLVPCPPVCSDAFALVSNLSPYSHDEGCLSSSQDHIPLAALPLLATSSPQYQEAVATVIQRANLAYGDFIKSQEGMTFNGQVCLIGDCVGGILAFDALCYSNQPVSESQSSSRRGSVVSMQDNDLLSPGILMNAAHCCGGGGGGGGGGGSSGGGGSSGGSSLESSRHLSRSNVDIPRSNGTEDPKRQLPRKRSDSSTYELDTIQQHQAFLSSLHASVLRTEPCSRHSSSSTMLDGTGALGRFDFEITDLFLFGCPLGLVLALRKTVIPALDVFQLRPACQQVYNLFHPADPSASRLEPLLERRFHALPPFSVPRYQRYPLGDGCSTLLADVLQTHNAAFQEHGAPSSPGTAPASRGFRRASEISIASQVSGMAESYTASSIAQKAPDALSHTPSVRRLSLLALPAPSPTTPGPHPPARKASPGLERAPGLPELDIGEVAAKWWGQKRIDYALYCPDALTAFPTVALPHLFHASYWESTDVVSFLLRQVMRHDNSSILELDGKEVSVFTPSKPREKWQRKRTHVKLRNVTANHRINDALANEDGPQVLTGRFMYGPLDMVTLTGEKVDVHIMTQPPSGEWLYLDTLVTNNSGRVSYTIPESHRLGVGVYPIKMVVRGDHTFADSYITVLPKGTEFVVFSIDGSFAASVSIMGSDPKVRAGAVDVVRHWQDLGYLIIYVTGRPDMQKQRVVAWLAQHNFPHGVVSFCDGLVHDPLRHKANFLKLLISELHLRVHAAYGSTKDVAVYSAISLSPMQIYIVGRPTKKLQQQCQFITDGYAAHLAQLKYSHRARPARNTATRMALRKGSFGLPGQGDFLRSRNHLLRTISAQPSGPSHRHERTQSQADGEQRGQRSMSVAAGCWGRAMTGRLEPGAAAGPK
binding: no binding

Source: paper PMC13260207
